Results: PMC12794343
For at least one entry, the source does not settle the construct or the ends of the probe. Where cells or extracts were used, other partners may take part. The comparison behind a weaker result is the experiment's own reference, which may not be listed here.

Molecular target: YBX1 (endogenous, nuclear extract) (UniProt P67809)
Test: EMSA
Settings: 10 mM Tris-HCl pH 7.6, 50 mM KCl, 1 mM DTT, 10% glycerol, 200 ng/reaction poly(dI-dC), 100 nM probe, 10 ug nuclear extract, 30 min on ice, 5% native gel, 0.5x TBE, protein in an extract, label: Cy5 at both ends of the universal strand

| Sequence | binding result (complex II abolished, complex I reduced versus YIR) | binding result (complexes I and II, both abolished with YKO extract, 50X cold probe removes II, reduces I) |
| --- | --- | --- |
| GAAAAGAGAGGGGTGGGAAGGACGTTCCGTACACA / TGTGTACGGAACGTCCTTCCCACCCCTCTCTTTTCCCAGACCAGGGCAC / GTGCCCTGGTCTGG [YIR_Mut probe] | binds more weakly |  |
| GAAAAGAGAGGGGTGGGAAGGCATGGGGTGAAAAA / TTTTTCACCCCATGCCTTCCCACCCCTCTCTTTTCCCAGACCAGGGCAC / GTGCCCTGGTCTGG [YIR probe] |  | binds |
